PubChem BioAssay AID1224828 | NIAID – 2016
The deposit covers about 17,000 reagents; shown is an unselected part. In the full data, 762 (4.5%) are marked active. 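Active calls include both raised and lowered p65 entry, mostly lowered; wells with fewer than 50 cells lack a z-score.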 The raw values are shown without normalisation.

Assay: 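Knock-downs that increase or decrease LPS-induced p65 nuclear translocation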 (primary screen)
System: mouse RAW264.7 G9 macrophage reporter cells (GFP-p65, Tnf promoter-mCherry)
Reagent: siRNA pool against mouse genes, 100 nM
Duration: 2 days siRNA transfection, then 40 min LPS before fixation
Conditions: LPS (Salmonella minnesota R595) at 10 ng/ml
Measurement: 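Microscopy ratio of nuclear to perinuclear-ring GFP-p65 signal, scaled to the plate median; gene score is the average of two replicate robust z-scores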
Reading the numbers: p65 translocation robust z-score: higher = more nuclear NF-kappaB p65 after LPS than the plate median; nuclear/cytoplasmic p65 ratio: higher = more nuclear NF-kappaB p65
Rule for the call: 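Called active when z exceeds 3.3 or falls under -1.56 (median of Tlr4 controls), giving activity score of at least 50; no calls for control wells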
Calls: active = hit (p65 shift raised or lowered); inactive = no clear change

The opening 4 records as a preview:
target	PubChem SID	p65 translocation robust z-score	nuclear/cytoplasmic p65 ratio, rep 1	nuclear/cytoplasmic p65 ratio, rep 2	low cell count flag	activity call
Myo10	SID315468071	2.31	1.75	1.63	enough cells to score	inactive
Ppp1r1b	SID315468663	-0.02	1.65	1.4	enough cells to score	inactive
Tmem179b	SID315473178	0.18	1.38	1.63	enough cells to score	inactive
Errfi1	SID315474876	-0.43	1.68	1.19	enough cells to score	inactive

The list itself, repeating the preview:
target	PubChem SID	p65 translocation robust z-score	nuclear/cytoplasmic p65 ratio, rep 1	nuclear/cytoplasmic p65 ratio, rep 2	low cell count flag	activity call
Myo10	SID315468071	2.31	1.75	1.63	enough cells to score	inactive
Ppp1r1b	SID315468663	-0.02	1.65	1.4	enough cells to score	inactive
Tmem179b	SID315473178	0.18	1.38	1.63	enough cells to score	inactive
Errfi1	SID315474876	-0.43	1.68	1.19	enough cells to score	inactive
Sh3tc2	SID315478425	-0.58	1.49	1.46	enough cells to score	inactive
Adcy9	SID315465302	-1.92	1.27	1.44	enough cells to score	active
Ppp2r2c	SID315480876	-0.34	1.56	1.56	enough cells to score	inactive
Dnajc7	SID315471474	0.56	1.53	1.45	enough cells to score	inactive
Arl6	SID315471440		1	1.59	fewer than 50 cells per well; well left out of scoring	inactive
Pla2g2a	SID315468561		1.55	1.42	fewer than 50 cells per well; well left out of scoring	inactive
Timm8a1	SID315470744	1.06	1.64	1.69	enough cells to score	inactive
Nudt16l1	SID315472710	-0.77	1.38	1.4	enough cells to score	inactive
Dusp28	SID315473030		1.37	1.38	fewer than 50 cells per well; well left out of scoring	inactive
Or14c45	SID315480270		1.45	1.36	fewer than 50 cells per well; well left out of scoring	inactive
6030443O07RIK	SID315482019		1.34	1.42	fewer than 50 cells per well; well left out of scoring	inactive
Plk5	SID315477982		1.34	1.43	fewer than 50 cells per well; well left out of scoring	inactive
Gria4	SID315467026	0.02	1.43	1.38	enough cells to score	inactive
Vmn1r18	SID315477288	1.54	1.67	1.34	enough cells to score	inactive
Fxyd3	SID315467836	1.21	1.78	1.62	enough cells to score	inactive
Popdc1	SID315470187	0.4	1.55	1.51	enough cells to score	inactive
Id1	SID315467365		1.12	1.18	fewer than 50 cells per well; well left out of scoring	inactive
Trim17	SID315471622		1.33	1.17	fewer than 50 cells per well; well left out of scoring	inactive
Cyp2c29	SID315466229	1.71	1.76	2.13	enough cells to score	inactive
Dynll2	SID315473410	-0.04	1.58	1.64	enough cells to score	inactive
Usp54	SID315475620	-1.03	1.25	1.12	enough cells to score	inactive
Usp54	SID315481156	1.75	1.67	1.72	enough cells to score	inactive
Atrx	SID315470063	-0.05	1.66	1.55	enough cells to score	inactive
Vmn1r51	SID315469965	-0.28	1.38	1.17	enough cells to score	inactive
Mas1	SID315467832	0.31	1.53	1.65	enough cells to score	inactive
Sack1a	SID315479444	-0.84	1.47	1.68	enough cells to score	inactive
Adam11	SID315465285	0.29	1.67	1.66	enough cells to score	inactive
Ppp1r1c	SID315475093		1.39	1.34	fewer than 50 cells per well; well left out of scoring	inactive
Slc61a1	SID315476528	-0.47	1.43	1.55	enough cells to score	inactive
Ms4a4d	SID315472536	-0.55	1.71	1.49	enough cells to score	inactive
Ubash3a	SID315481495	-0.09	1.55	1.44	enough cells to score	inactive
Ptch2	SID315468764	-0.01	1.49	1.42	enough cells to score	inactive
Fam120c	SID315477480	0.83	1.61	1.29	enough cells to score	inactive
Ddx39a	SID315473490	0.21	1.59	1.59	enough cells to score	inactive
Rfx2	SID315468959	-0.27	1.5	1.46	enough cells to score	inactive
Or56a3b	SID315481935	-0.29	1.37	1.26	enough cells to score	inactive
Ngef	SID315471138	-0.41	1.67	1.57	enough cells to score	inactive
Cyp2r1	SID315479745	0.43	1.58	1.92	enough cells to score	inactive
Or6b9	SID315479095		1.48	1.19	fewer than 50 cells per well; well left out of scoring	inactive
Rbpjl	SID315468925	-1.67	1.35	1.22	enough cells to score	active
Hnrnpu	SID315470913	0.03	1.42	1.56	enough cells to score	inactive
Vmn1r193	SID315477334	1.13	1.53	1.36	enough cells to score	inactive
Cnr1	SID315466035	-1.56	1.28	1.21	enough cells to score	inactive
Gdpgp1	SID315480899	0.4	1.57	1.66	enough cells to score	inactive
Usp5	SID315469919	-1.48	1.45	1.16	enough cells to score	inactive
Krt86	SID315467695	0.48	1.54	1.44	enough cells to score	inactive
Rlbp1	SID315468981		1.2	1.69	fewer than 50 cells per well; well left out of scoring	inactive
Mms19	SID315474494	1.09	1.8	1.89	enough cells to score	inactive
Gdf3	SID315466871	-2.44	1.29	1.15	enough cells to score	active
Slc18a2	SID315477839	0.26	1.36	1.35	enough cells to score	inactive
Ssr4	SID315469474	2.12	1.77	1.95	enough cells to score	inactive
Slc22a7	SID315476696	-0.24	1.37	1.19	enough cells to score	inactive
Map3k1	SID315470379	0.09	1.68	1.41	enough cells to score	inactive
Plaur	SID315468572	-0.11	1.45	1.42	enough cells to score	inactive
Ccdc73	SID315477708	-0.1	1.13	1.29	enough cells to score	inactive
